Consider eight molecules from patent US20250213691A1.

Amino acid sequences for entries named in this document (tags omitted). A change or cut given only in a name is not applied to a line headed by its entry. Chains listed by the source or under a name are the forms on record and can include a tag or linker.
MSLN-His (Q13421, form named): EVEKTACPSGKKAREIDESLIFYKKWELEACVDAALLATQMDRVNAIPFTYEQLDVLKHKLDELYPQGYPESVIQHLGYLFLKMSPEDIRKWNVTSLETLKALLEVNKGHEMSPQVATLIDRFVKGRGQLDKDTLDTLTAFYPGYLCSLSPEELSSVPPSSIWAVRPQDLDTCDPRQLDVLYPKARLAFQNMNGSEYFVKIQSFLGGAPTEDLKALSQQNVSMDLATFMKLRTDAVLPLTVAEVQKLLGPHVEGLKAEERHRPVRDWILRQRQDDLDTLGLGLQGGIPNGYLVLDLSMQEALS

For test [1], the target named is MSLN-His (human) (UniProt Q13421). Briefly: ELISA, VHH-Fc fusion protein on MSLN. (An ELISA detects its analyte on a solid surface through an enzyme-linked reagent.)
Test [2] shares this target. Briefly: ELISA on MSLN, positive control.

No constants are given. Whether binding was seen depends on the method and setting. Some results given as binding are weak or reduced against the parent protein; the word gives no strength. For some assays here: Where a sequence is shown, tags or fusion partners need not be part of it.

B1: MSLN 3 VHH-Fc fusion protein (Fc fusion, not shown: a dimerising Fc or GST)
chain: EVQLVESGGGLVQPGGSLRLSCAASGNTLSRYNMGWFRQAPGKGRELVAYISWRGGSTYYPDSVEGRFTISRDNAKRMVYLQMNSLRAEDTAVYYCAASIKTADPDDYDYWGQGTQVTVSS
For B1, the binding result in the test with MSLN-His (human) [1] is listed as “binds”.

B2: MSLN 36 VHH-Fc fusion protein (Fc fusion, not shown: a dimerising Fc or GST)
chain: EVQLVESGGGLVQPGGSLRLSCAASGITFSNYVMGWFRQAPGKGRELVAAITASGGNTYYPDSVEGRFTISRDNAKRMVYLQMNSLRAEDTAVYYCAAKRAYWGSDGDYQGYYYYDYWGQGTQVTVSS
As to B2, in the test with MSLN-His (human) [1], the binding result was “binds”.

B3: MSLN 27 VHH-Fc fusion protein (Fc fusion, not shown: a dimerising Fc or GST)
chain: EVQLVESGGGLVQPGGSLRLSCAASGLIFSTNAMGWFRQAPGKGRELVAAISWRGGYTYYPDSVEGRFTISRDNAKRMVYLQMNSLRAEDTAVYYCAAGTARIDYLSQDGYNYWGQGTQVTVSS
Consider B3, for which, in the test with MSLN-His (human) [1], the binding result is recorded as “binds”.

B4: MSLN 16 VHH-Fc fusion protein (Fc fusion, not shown: a dimerising Fc or GST)
chain: EVQLVESGGGLVQPGGSLRLSCAASGRILSNYNMGWFRQAPGKGRELVAYISWGGSRTYYPDSVEGRFTISRDNAKRMVYLQMNSLRAEDTAVYYCAATINSASDYDYWGQGTQVTVSS
As for B4, the binding entry with MSLN-His (human) [1] is “binds”.

B5: MSLN 42 VHH-Fc fusion protein (Fc fusion, not shown: a dimerising Fc or GST)
chain: EVQLVESGGGLVQPGGSLRLSCAASGRTLSSNVMGWFRQAPGKGRELVAAITPRGSGTYYPDSVEGRFTISRDNAKRMVYLQMNSLRAEDTAVYYCAARFAPDPAFSVYWSENYYDYWGQGTQVTVSS
Consider B5, for which, in the test with MSLN-His (human) [1], the binding entry is on record as “binds”.

B6: P4 (positive antibody) (antibody, V domains shown)
VH: QVQLQQSGPGLVTPSQTLSLTCAISGDSVSSNSATWNWIRQSPSRGLEWLGRTYYRSKWYNDYAVSVKSRMSINPDTSKNQFSLQLNSVTPEDTAVYYCARGMMTYYYGMDVWGQGTTVTVSS
VL: QPVLTQSSSLSASPGASASLTCTLRSGINVGPYRIYWYQQKPGSPPQYLLNYKSDSDKQQGSGVPSRFSGSKDASANAGVLLISGLRSEDEADYYCMIWHSSAAVFGGGTQLTVLS
Consider B6, for which, in the test with MSLN-His (human) [2], the binding result was “binds”.

B7: MSLN 41 VHH-Fc fusion protein (Fc fusion, not shown: a dimerising Fc or GST)
chain: EVQLVESGGGLVQPGGSLRLSCAASGRTFSYNAMGWFRQAPGKGRELVAAITWRGGYTYYPDSVEGRFTISRDNAKRMVYLQMNSLRAEDTAVYYCAAATARVYADDSYLNESGYDYWGQGTQVTVSS
On to B7, for which the binding result with MSLN-His (human) [1] is “binds”.

B8: MSLN 10 VHH-Fc fusion protein (Fc fusion, not shown: a dimerising Fc or GST)
chain: EVQLVESGGGLVQPGGSLRLSCAASGDTLSTYAMGWFRQAPGKGRELVAGITSSGSGTYYPDSVEGRFTISRDNAKRMVYLQMNSLRAEDTAVYYCAARRIGPVYDPYSVYNYWGQGTQVTVSS
For B8, the binding entry with MSLN-His (human) [1] is “binds”.
